Patent publication US9945860B2, “Nicotinamide adenine dinucleotide indicators, methods of preparation and application thereof” (East China University of Science and Technology, priority 2011, dated 2018)
At least one structure is not confirmed: it was looked up by name or label, or the drawing left a doubt.

Experiments:
[1] = test system: NADH levels in different subcellular compartments; test: Real-time measurement of NADH levels regulated by glucose, pyruvate and lactate; format: cell-based
Text: Glycolysis is an important pathway of producing NADH and it plays a vital role in regulating intracellular NADH levels. The nicotinamide adenine dinucleotide fluorescent sensors were used to test how several important metabolites in this pathway, glucose, pyruvate and lactate, would influence the NADH levels in different subcellular compartments. […] As products of glycolysis pathway, pyruvate and lactate are presented in the cytoplasm with a dynamic balance between them. At increased intracellular levels of pyruvate, lactate dehydrogenase consumes NADH and produces lactate and NAD^+, and in turn, leads to the decrease of NADH levels in cytoplasm. At increased intracellular levels of lactate, lactate dehydrogenase consumes NAD^+ and produces pyruvate and NADH, and in turn, leads to the increase of NADH levels in cytoplasm.

[2] = test system: H1299 tumor cells; test: In vivo imaging of NADH metabolism in H1299-superFrex tumors; set-up: species or system nude mice
Protocol: H1299 tumor cells were transfected with pcDNA3.1-cyt-superFrex, and then screened under Hygromycin B for 2 weeks. […] Male nude mice of 5-6 weeks old were subcutaneously injected with 200 μl of H1299-superFrex cell suspension (1.0×10^7 cells) into their right armpits and housed for 3-4 weeks at SPF Animal facility, tumors in the nude mice grew to 0.6-1.0 cm. The nude mice were anaesthetized and then injected with 300 μl of sodium pyruvate (100 mM) via the tail vein. Effects of the agent on tumor metabolism were observed immediately with Kodak multifunctional vivo imaging system (Carestream, USA). […] Over time, pyruvate was gradually consumed metabolically, and the ratio of NADH/NAD^+ in tumor cells resumed the initial level (FIG. 12-C). In summary, superFrex, the fluorescent sensor for reduced/oxidized nicotinamide adenine dinucleotide ratio, works well in real-time monitoring of the NADH metabolism in tumor tissues.

[3] = 300 μl sodium pyruvate (100 mM) via the tail vein

SMILES: CC(=O)C(=O)O [pyruvate]
- NADH levels in cytoplasm [1]: rapid decline
- fluorescence of 420 nm channel of superFrex in tumor tissues [2, 3]: quick decrease
- fluorescence of 490 nm channel of superFrex in tumor tissues [2, 3]: quick increase
- ratio 420/490 nm [2, 3]: decrease
- NADH/NAD+ ratios in tumor cells ([2]; resumed the initial level over time): decrease
